Assay results as given in PMC5379670.
Results are given in words; binding and its absence hold for the method and conditions named. In cells and extracts the contact can be indirect. These calls come from enrichment with a bait or labelling near it, and not all partners need be listed. No binding means not detected with the bait. Where a sequence is shown, tags or fusion partners need not be part of it.

By UniProt entry, the sequences of proteins in these tests, tags left out.
UniProt P57780: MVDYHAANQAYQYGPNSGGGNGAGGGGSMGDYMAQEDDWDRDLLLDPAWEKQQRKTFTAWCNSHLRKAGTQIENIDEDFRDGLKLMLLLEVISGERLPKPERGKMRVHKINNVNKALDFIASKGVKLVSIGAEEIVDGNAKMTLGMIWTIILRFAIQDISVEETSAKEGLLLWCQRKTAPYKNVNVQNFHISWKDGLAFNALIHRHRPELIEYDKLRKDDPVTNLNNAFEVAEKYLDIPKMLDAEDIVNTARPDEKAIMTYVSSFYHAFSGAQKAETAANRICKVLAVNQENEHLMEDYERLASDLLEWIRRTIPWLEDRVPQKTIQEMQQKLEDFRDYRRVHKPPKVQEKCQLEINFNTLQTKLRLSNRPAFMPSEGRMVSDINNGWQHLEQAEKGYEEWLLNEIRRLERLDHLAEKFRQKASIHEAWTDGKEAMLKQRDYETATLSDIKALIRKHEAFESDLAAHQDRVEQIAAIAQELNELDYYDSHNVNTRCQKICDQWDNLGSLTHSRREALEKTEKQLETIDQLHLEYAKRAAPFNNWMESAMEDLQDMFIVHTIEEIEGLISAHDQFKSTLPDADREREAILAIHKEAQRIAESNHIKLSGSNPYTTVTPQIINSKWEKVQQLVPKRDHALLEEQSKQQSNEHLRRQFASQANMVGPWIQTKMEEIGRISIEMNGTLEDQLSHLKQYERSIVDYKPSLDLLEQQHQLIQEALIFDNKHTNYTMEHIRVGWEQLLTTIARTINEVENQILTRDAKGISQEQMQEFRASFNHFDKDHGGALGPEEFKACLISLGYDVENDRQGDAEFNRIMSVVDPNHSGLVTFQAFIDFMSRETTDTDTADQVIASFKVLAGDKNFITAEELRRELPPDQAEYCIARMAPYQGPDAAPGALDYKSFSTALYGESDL
UniProt Q9WUM3: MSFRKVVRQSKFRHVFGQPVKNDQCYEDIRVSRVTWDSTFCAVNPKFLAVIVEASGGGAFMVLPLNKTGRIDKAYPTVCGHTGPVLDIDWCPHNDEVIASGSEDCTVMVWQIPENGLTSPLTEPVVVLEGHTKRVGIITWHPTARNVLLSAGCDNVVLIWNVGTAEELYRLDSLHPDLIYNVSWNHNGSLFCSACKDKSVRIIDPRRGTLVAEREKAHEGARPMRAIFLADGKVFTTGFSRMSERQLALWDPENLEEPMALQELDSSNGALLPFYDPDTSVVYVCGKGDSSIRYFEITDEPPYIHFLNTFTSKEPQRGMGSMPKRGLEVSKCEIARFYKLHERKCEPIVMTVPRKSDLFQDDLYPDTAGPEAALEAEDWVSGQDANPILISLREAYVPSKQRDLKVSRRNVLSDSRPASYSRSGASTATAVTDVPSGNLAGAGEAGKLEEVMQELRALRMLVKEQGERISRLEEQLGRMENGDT
UniProt Q9WUM4: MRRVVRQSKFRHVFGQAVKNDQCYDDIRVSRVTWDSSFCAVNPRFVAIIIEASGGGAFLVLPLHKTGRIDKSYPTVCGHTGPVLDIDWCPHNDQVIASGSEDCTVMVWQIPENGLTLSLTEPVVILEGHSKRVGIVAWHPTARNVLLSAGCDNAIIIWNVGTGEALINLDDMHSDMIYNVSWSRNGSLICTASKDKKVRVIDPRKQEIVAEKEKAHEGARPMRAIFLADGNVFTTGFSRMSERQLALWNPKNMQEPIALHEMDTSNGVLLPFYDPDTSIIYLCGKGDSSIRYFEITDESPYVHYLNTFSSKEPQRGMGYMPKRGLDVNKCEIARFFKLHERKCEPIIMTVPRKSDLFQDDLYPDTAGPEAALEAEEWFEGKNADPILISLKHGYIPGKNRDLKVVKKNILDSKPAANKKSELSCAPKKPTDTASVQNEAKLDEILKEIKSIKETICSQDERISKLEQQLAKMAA
UniProt P19157: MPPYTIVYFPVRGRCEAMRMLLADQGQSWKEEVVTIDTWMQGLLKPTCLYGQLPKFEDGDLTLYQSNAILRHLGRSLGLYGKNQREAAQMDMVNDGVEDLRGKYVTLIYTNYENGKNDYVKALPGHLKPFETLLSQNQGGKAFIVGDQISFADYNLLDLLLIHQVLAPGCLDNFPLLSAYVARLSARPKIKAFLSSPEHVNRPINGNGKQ
UniProt Q91WK0: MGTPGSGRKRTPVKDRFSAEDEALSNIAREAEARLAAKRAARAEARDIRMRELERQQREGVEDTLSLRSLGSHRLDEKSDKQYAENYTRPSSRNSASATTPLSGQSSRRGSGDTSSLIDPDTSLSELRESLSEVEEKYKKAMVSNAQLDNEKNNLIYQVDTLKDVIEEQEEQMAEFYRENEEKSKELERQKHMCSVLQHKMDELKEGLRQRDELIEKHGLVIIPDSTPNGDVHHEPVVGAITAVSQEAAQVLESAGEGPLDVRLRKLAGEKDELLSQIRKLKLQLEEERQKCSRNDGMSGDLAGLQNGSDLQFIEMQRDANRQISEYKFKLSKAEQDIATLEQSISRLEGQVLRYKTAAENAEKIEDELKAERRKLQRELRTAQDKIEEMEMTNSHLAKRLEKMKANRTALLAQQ
UniProt Q61879: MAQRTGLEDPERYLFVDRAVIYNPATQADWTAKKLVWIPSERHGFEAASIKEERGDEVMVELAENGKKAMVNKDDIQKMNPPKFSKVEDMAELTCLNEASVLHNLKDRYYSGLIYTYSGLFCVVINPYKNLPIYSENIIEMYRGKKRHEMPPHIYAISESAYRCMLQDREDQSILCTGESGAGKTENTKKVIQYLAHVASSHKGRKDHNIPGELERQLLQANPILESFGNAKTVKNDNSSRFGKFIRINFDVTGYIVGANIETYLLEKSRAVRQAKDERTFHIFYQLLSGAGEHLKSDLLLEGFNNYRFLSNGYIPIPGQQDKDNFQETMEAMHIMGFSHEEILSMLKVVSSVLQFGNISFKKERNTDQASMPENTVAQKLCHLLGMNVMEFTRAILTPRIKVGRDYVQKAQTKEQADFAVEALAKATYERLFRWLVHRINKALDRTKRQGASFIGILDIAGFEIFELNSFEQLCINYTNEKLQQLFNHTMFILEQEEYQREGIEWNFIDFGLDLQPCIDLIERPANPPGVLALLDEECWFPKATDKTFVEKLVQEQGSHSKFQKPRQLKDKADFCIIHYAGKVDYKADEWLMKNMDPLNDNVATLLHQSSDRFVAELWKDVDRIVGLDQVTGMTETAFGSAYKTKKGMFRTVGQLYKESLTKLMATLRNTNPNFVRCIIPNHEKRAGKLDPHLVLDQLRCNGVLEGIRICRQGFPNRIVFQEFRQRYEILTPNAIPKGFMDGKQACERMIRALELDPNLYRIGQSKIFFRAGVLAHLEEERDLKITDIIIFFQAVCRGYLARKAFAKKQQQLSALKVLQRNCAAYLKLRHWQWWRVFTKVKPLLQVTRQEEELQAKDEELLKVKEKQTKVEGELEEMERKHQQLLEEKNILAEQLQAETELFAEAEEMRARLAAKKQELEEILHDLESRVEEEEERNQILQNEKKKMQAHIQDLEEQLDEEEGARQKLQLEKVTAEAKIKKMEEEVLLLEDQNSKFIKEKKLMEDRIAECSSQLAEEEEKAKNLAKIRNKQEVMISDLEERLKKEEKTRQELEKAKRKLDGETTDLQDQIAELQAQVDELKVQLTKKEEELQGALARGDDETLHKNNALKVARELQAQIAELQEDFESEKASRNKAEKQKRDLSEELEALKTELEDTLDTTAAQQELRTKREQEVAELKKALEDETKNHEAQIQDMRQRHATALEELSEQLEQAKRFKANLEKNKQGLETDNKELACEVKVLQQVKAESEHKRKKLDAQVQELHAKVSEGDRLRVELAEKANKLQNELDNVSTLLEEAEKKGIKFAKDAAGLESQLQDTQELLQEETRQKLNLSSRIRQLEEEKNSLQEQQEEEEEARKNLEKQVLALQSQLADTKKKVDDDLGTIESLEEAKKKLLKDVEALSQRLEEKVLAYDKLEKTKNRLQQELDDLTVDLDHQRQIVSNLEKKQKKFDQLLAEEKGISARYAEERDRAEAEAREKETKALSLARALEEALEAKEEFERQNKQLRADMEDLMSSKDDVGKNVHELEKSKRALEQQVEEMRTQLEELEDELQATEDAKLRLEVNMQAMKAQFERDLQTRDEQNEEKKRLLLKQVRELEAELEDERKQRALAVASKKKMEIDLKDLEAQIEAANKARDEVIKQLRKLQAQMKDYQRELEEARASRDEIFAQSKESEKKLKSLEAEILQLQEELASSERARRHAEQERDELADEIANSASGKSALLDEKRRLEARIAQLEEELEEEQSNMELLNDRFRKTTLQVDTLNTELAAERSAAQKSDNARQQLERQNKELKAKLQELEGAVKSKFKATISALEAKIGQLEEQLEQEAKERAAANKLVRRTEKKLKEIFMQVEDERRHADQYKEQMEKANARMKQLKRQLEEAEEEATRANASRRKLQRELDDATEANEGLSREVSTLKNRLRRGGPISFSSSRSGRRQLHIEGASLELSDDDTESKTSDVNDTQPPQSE
UniProt P11103: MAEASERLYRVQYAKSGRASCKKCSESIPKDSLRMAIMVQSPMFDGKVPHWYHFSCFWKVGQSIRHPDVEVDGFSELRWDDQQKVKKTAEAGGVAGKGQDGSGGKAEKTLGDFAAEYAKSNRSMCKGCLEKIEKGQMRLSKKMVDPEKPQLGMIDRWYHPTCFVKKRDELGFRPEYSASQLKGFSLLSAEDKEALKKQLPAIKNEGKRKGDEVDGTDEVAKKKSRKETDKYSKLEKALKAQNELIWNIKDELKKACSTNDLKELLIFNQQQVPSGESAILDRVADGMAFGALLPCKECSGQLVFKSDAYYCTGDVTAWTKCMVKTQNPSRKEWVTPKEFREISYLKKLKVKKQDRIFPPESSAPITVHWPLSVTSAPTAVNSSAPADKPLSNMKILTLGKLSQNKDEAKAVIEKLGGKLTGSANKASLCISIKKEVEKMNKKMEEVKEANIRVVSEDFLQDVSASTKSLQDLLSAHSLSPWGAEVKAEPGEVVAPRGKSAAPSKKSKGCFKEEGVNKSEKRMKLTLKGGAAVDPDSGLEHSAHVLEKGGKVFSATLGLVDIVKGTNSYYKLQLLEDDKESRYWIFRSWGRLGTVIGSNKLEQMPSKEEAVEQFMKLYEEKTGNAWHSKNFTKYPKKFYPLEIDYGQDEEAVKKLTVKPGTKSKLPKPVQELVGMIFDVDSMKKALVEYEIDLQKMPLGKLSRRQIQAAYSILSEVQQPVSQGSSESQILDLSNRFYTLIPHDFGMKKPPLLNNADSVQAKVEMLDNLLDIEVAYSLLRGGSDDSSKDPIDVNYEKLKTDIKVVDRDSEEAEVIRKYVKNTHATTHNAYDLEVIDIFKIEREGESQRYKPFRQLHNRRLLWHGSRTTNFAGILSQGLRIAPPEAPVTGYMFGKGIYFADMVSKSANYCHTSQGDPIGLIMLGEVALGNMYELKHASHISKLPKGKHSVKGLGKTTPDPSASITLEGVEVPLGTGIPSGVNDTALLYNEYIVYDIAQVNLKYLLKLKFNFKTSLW
UniProt P68372: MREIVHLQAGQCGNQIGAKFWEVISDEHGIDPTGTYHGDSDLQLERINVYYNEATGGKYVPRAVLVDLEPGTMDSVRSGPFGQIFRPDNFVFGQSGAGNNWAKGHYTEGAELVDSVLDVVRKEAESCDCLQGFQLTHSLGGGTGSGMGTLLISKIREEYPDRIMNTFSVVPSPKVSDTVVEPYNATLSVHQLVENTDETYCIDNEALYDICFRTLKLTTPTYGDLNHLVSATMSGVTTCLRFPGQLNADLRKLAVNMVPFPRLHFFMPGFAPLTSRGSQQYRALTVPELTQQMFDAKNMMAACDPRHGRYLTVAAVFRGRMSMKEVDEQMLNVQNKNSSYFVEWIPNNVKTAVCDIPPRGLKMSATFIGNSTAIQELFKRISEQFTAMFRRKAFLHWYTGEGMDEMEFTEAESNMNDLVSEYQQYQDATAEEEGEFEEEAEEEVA
UniProt P99024: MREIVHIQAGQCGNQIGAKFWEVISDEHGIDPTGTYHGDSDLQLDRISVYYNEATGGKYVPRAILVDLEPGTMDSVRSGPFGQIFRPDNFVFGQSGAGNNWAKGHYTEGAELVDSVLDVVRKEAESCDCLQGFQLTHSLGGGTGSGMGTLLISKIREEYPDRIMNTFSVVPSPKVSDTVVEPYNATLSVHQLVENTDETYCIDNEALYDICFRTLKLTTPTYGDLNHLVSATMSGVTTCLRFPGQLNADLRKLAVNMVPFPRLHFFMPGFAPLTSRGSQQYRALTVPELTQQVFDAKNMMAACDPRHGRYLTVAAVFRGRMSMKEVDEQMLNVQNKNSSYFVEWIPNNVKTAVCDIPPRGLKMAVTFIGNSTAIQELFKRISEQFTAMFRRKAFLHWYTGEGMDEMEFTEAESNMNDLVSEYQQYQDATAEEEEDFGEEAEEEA

T1: Flag-tagged mouse MAGE-G1 stably expressed in P19 cells (mouse) (UniProt Q9CPR8)
T1 sequence: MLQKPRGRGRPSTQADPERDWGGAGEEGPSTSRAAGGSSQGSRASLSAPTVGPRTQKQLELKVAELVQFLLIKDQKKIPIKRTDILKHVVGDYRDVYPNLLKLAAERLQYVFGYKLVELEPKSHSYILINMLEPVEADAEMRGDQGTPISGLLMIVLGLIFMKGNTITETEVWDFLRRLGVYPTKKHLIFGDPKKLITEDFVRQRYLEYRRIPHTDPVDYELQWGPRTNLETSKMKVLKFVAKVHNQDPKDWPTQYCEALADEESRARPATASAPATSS

B1: DNA ligase 3 (protein, UniProt P97386 1-1015)
chain: MTLAFKILFPRNLCALGRKELCLFPEQNRWAAISQFSQWSETNLLGGCCLLQRRKPVLALQRGHLRPRATHLTFWPGSHVGLCTGPCAMAEQRFCVDYAKRGTAGCKKCKEKIVKGVCRIGKVVPNPFSESGGDMKEWYHIKCMFEKLERARATTKKIEDLTELEGWEELEDNEKEQISQHIADLSSKAAATPKKKAAVQAKLTTTGQVTSPVKGASFITSTNPRKFSGFSAAKPNNSEQAPSSPAPGTSLSASKCDPKHKDCLLREFRKLCAMVAENPSYNTKTQIIHDFLQKGSTGGFSDGFHGDVYLTVKLLLPGVIKSVYNLNDKQIVKLFSRIFNCNPDDMARDLEQGDVSETIRIFFEQSKSFPPAAKSLLTIQEVDAFLLHLSKLTKEDEQQQALQDIASRCTANDLKCIIRLIKHDLKMNSGAKHVLDALDPNAYEAFKASRNLQDVVERVLHNEQEVEKDPGRRRALRVQASLMTPVQPMLAEACKSIEYAMKKCPNGMFSEIKYDGERVQVHKKGDHFSYFSRSLKPVLPHKVAHFKDYIPKAFPGGQSMILDSEVLLIDNNTGKPLPFGTLGVHKKAAFQDANVCLFVFDCIYFNDVSLMDRPLCERRKFLHDNMVEIRNRIMFSEMKQVTKASDLADMINRVIREGLEGLVLKDVKGTYEPGKRHWLKVKKDYLNEGAMADTADLVVLGAFYGQGSKGGMMSIFLMGCYDPDSQKWCTVTKCAGGHDDATLARLQKELVMVKISKDPSKIPSWLKINKIYYPDFIVPDPKKAAVWEITGAEFSRSEAHTADGISIRFPRCTRIRDDKDWKSATNLPQLKELYQLSKDKADFAVVAGDEASPTTGGSSGENEGTAGSAGPCKGPPSKSSASAKTTEQKLNSPSSRGGIKPIPKHSPMKPGEKLAVKSSPVKVGMKRKATDETPCLKKVLLDVFTGVRLYLPPSTPDFKRLKRYFVAFDGDLVQEFDMGSATHVLGNREKNTDAQLVSSEWIWACIRKRRLIAPC
B2: Tropomodulin-3 (protein, UniProt Q9JHJ0 1-352)
chain: MALPFRKDLGDYKDLDEDELLGKLSESELKQLETVLDDLDPENALLPAGFRQKNQTSKSATGPFDRERLLSYLEKQALEHKDRDDYVPYTGEKKGKIFIPKQKPAQTLTEETISLDPELEEALTSASDTELCDLAAILGMHNLIADTPFCDVLGSSNGVNQERFPNVVKGEKILPVFDEPPNPTNVEESLKRIRENDARLVEVNLNNIKNIPIPTLKDFAKTLEANTHVKHFSLAATRSNDPVAVAFADMLKVNKTLKSLNMESNFITGAGVLALIDALRDNETLMELKIDNQRQQLGTSVELEMAKMLEENTNILKFGYQFTQQGPRTRAANAITKNNDLVRKRRIEGDHQ
B3: Paraspeckle component 1 (protein, UniProt Q8R326 1-523)
chain: MMLRGNLKQVRIEKNPARLRALESAAGESEPVAAAAMALTLAGEQAPPPAPSEEHPDEELGFTIDIKSFLKPGEKTYTQRCRLFVGNLPTDITEEDFKRLFERYGEPSEVFINRDRGFGFIRLESRTLAEIAKAELDGTILKSRPLRIRFATHGAALTVKNLSPVVSNELLEQAFSQFGPVEKAVVVVDDRGRATGKGFVEFAAKPPARKALERCGDGAFLLTTTPRPVIVEPMEQFDDEDGLPEKLMQKTQQYHKEREQPPRFAQPGTFEFEYASRWKALDEMEKQQREQVDRNIREAKEKLEAEMEAARHEHQLMLMRQDLMRRQEELRRLEELRNQELQKRKQIQLRHEEEHRRREEEMIRHREQEELRRQQEGGFKPNYMENREQEMRMGDMGPRGAINMGDAFSPAPAGTQGPPPMMGMNMNNRGTIPGPPMGPGPAMGPEGAANMGTPMIPDNGAVHNDRFPQGPPSQMGSPMGNRTGSETPQAPMSGVGPVSGGPGGFGRGSQGGNFEGPNKRRRY
B4: Plastin-3 (protein, UniProt Q99K51 1-630)
chain: MDEMATTQISKDELDELKEAFAKVDLNSNGFICDYELHELFKEANMPLPGYKVREIIQKLMVDGDRNKDGKISFNEFVYIFQEVKSSDIAKTFRKAINRKEGICALGGTSELSSEGTQHSYSEEEKYAFVNWINKALENDPDCRHVIPMNPNTDDLFKAVGDGIVLCKMINLSVPDTIDERAINKKKLTPFIIQENLNLALNSASAIGCHVVNIGAEDLRAGKPHLVLGLLWQIIKIGLFADIELSRNEALAALLRDGETLEELMKLSPEELLLRWANFHLENSGWQKINNFSADIKDSKAYFHLLNQIAPKGQKEGEPRIDINMSGFNETDDLKRAESMLQQADKLGCRQFVTPADVVSGNPKLNLAFVANLFNKYPALTKPENQDIDWTLLEGETREERTFRNWMNSLGVNPHVNHLYADLQDALVILQLYERIKVPVDWSKVNKPPYPKLGANMKKLENCNYAVELGKNPAKFSLVGIGGQDLNDGNPTLTLAVVWQLMRRYTLNVLEDLGEGQKANDDIIVNWVNRTLSEAGKSTSIQSFKDKTISSSLAVVDLIDAIQPGCINYDLVKSGNLTEDDKHNNAKYAVSMARRIGARVYALPEDLVEVKPKMVMTVFACLMGRGMKRV
B5: Drebrin (protein, UniProt Q9QXS6 1-706)
chain: MAGVSFSGHRLELLAAYEEVIREESAADWALYTYEDGSDDLKLAASGEGGLQELSGHFENQKVMYGFCSVKDSQAALPKYVLINWVGEDVPDARKCACASHVAKVAEFFQGVDVIVNASSVEDIDAGAIGQRLSNGLARLSSPVLHRLRLREDENAEPVGTTYQKTDAAVEMKRINREQFWEQAKKEEELRKEEERKKALDARLRFEQERMEQERQEQEERERRYREREQQIEEHRRKQQSLEAEEAKRRLKEQSIFGDQRDEEEESQMKKSESEVEEAAAIIAQRPDNPREFFRQQERVASASGGSCDAPAPAPFNHRPGRPYCPFIKASDSGPSSSSSSSSSPPRTPFPYITCHRTPNLSSSLPCSHLDSHRRMAPTPIPTRSPSDSSTASTPIAEQIERALDEVTSSQPPPPPPPPPPTQEAQETTPSLDEELSKEAKVTAAPEVWAGCAAEPPQAQEPPLLQSSPLEDSMCTESPEQAALAAPAEPAASVTSVADVHAADTIETTTATTDTTIANNVTPAAASLIDLWPGNGEEASTLQAEPRVPTPPSGAEASLAEVPLLNEAAQEPLPPVGEGCANLLNFDELPEPPATFCDPEEEVGETLAASQVLTMPSALEEVDQVLEQELEPEPHLLTNGETTQKEGTQASEGYFSQSQEEEFAQSEEPCAKVPPPVFYNKPPEIDITCWDADPVPEEEEGFEGGD
B6: Heterogeneous nuclear ribonucleoprotein F (protein, UniProt Q9Z2X1 1-415)
chain: MMLGPEGGEGYVVKLRGLPWSCSIEDVQNFLSDCTIHDGVAGVHFIYTREGRQSGEAFVELESEDDVKLALKKDRESMGHRYIEVFKSHRTEMDWVLKHSGPNSADSANDGFVRLRGLPFGCTKEEIVQFFSGLEIVPNGITLPVDPEGKITGEAFVQFASQELAEKALGKHKERIGHRYIEVFKSSQEEVRSYSDPPLKFMSVQRPGPYDRPGTARRYIGIVKQAGLDRMRSGAYSAGYGGYEEYSGLSDGYGFTTDLFGRDLSYCLSGMYDHRYGDSEFTVQSTTGHCVHMRGLPYKATENDIYNFFSPLNPVRVHIEIGPDGRVTGEADVEFATHEEAVAAMSKDRANMQHRYIELFLNSTTGASNGAYSSQVMQGMGVSAAQATYSGLESQSVSGCYGAGYSGQNSMGGYD
B7: Histone H1.1 (protein, UniProt P43275 1-213)
chain: MSETAPVAQAASTATEKPAAAKKTKKPAKAAAPRKKPAGPSVSELIVQAVSSSKERSGVSLAALKKSLAAAGYDVEKNNSRIKLGLKSLVNKGTLVQTKGTGAAGSFKLNKKAESKAITTKVSVKAKASGAAKKPKKTAGAAAKKTVKTPKKPKKPAVSKKTSKSPKKPKVVKAKKVAKSPAKAKAVKPKASKAKVTKPKTPAKPKKAAPKKK

Target: T1, Flag-tagged mouse MAGE-G1 stably expressed in P19 cells (mouse)
Experiment: affinity purification with mass spectrometry; SILAC: lysates of heavy-labelled P19 cells stably expressing Flag-MAGE-G1 and light-labelled empty-vector cells, both RA-treated 6 days, mixed 1:1; anti-Flag immunoprecipitation in IP Lysis Buffer (25 mM Tris-HCl pH 7.4, 150 mM NaCl, 1% NP-40, 1 mM EDTA, 5% glycerol) overnight at 4 °C, Protein A/G Plus-agarose; SDS-PAGE, in-gel trypsin digestion, LC-MS/MS

binding	Molecule
no binding	Alpha-actinin-4 (from UniProt P57780 1-912)
no binding	Coronin-1B (from UniProt Q9WUM3 1-484)
no binding	Coronin-1C (from UniProt Q9WUM4 1-474)
no binding	Glutathione S-transferase P 1 (from UniProt P19157 1-210)
no binding	Inosine-5′-monophosphate dehydrogenase 2 (from UniProt P24547 1-514)
no binding	Insulin-like growth factor 2 mRNA-binding protein 1 (from UniProt O88477 1-577)
no binding	Leucine-rich repeat flightless-interacting protein 2 (from UniProt Q91WK0 1-415)
no binding	Myosin-10 (from UniProt Q61879 1-1976)
no binding	Poly [ADP-ribose] polymerase 1 (from UniProt P11103 1-1013)
no binding	Tubulin alpha-1C chain (from UniProt P68373 1-449)
no binding	Tubulin beta-4B chain (from UniProt P68372 1-445)
no binding	Tubulin beta-5 chain (from UniProt P99024 1-444)
no binding	B1
no binding	B2
no binding	B3
no binding	B4
no binding	B5
no binding	B6
no binding	B7
